According to PubChem BioAssay AID330 (DTP/NCI, 2004):
The list does not hold the whole screen: it gathers tests that were run many times, whatever their T/C, doses with no T/C, and many T/C values between a quarter and a half above the control. Other doses and runs of a compound stand elsewhere. T/C: endpoint of the treated group in % of that of the vehicle group. Some entries give survivors of the animals treated and no T/C: the source files T/C as zero there, which appears to mark a toxic dose or a test without result, not a measured value. Some survivor counts are full or nearly so, which does not show that the dose was tolerated: the source hardly ever lists a survival T/C far under the control, and the zero likely stands for such cases as well. Survivors were counted at the toxicity check, usually on the fifth day, unless a day is given; later deaths do not show. Schedules are NCI's codes, read here as Q, the interval in days (D) or hours (H), X, the number of doses. Where survival is the endpoint, the PubChem record calls one and a half times the control and up active, and a quarter to a half above the control has no call in these data; cut-offs in other NCI protocols can differ. Some doses were run more than once; the results are listed from low to high.

Test system: P388 leukemia ip, CD2F1 mice, survival T/C
Assay: NCI In Vivo Anticancer Drug Screen. Data for tumor model P388 Leukemia (intraperitoneal) in CD2F1 (CDF1) mice
Conditions: T/C endpoint: median survival time, higher T/C = longer survival
[1] = dose: 100.0 mg/kg/injection, schedule: Q04DX002 (ip), vehicle: saline with Tween-80
[2] = dose: 100.0 mg/kg/injection, schedule: Q01DX009 (ip), vehicle: saline
[3] = dose: 60.0 mg/kg/injection, schedule: Q01DX005 (ip), vehicle: Klucel (hydroxypropylcellulose) (HPC)
[4] = dose: 120.0 mg/kg/injection, schedule: Q01DX005 (ip), vehicle: Klucel (hydroxypropylcellulose) (HPC)
[5] = dose: 240.0 mg/kg/injection, schedule: Q01DX005 (ip), vehicle: saline with Tween-80
[6] = dose: 120.0 mg/kg/injection, schedule: Q01DX005 (ip), vehicle: saline
[7] = dose: 240.0 mg/kg/injection, schedule: Q01DX005 (ip), vehicle: saline
[8] = dose: 50.0 mg/kg/injection, schedule: Q01DX009 (ip), vehicle: saline with Tween-80
[9] = dose: 100.0 mg/kg/injection, schedule: Q01DX009 (ip), vehicle: saline with Tween-80
[10] = dose: 200.0 mg/kg/injection, schedule: Q01DX009 (ip), vehicle: saline with Tween-80
[11] = dose: 200.0 mg/kg/injection, schedule: Q01DX005 (ip), vehicle: saline with Tween-80
[12] = dose: 100.0 mg/kg/injection, schedule: Q01DX001 (ip), vehicle: saline with Tween-80
[13] = dose: 200.0 mg/kg/injection, schedule: Q01DX001 (ip), vehicle: saline with Tween-80
[14] = dose: 400.0 mg/kg/injection, schedule: Q01DX001 (ip), vehicle: saline with Tween-80
[15] = dose: 240.0 mg/kg/injection, schedule: Q01DX005 (ip), vehicle: Klucel (hydroxypropylcellulose) (HPC)
[16] = dose: 25.0 mg/kg/injection, schedule: Q01DX009 (ip), vehicle: saline with Tween-80
[17] = dose: 400.0 mg/kg/injection, schedule: Q04DX003 (ip), vehicle: saline with Tween-80

For `CCCCCCN=C(N)N/N=C(\C)c1ccc2c(c1)Cc1cc(/C(C)=N/NC(N)=NCCCCCC)ccc1-2`, the survivor count [1] was 1 of 6 and the survivor count (dose: 200.0 mg/kg/injection, schedule: Q04DX002 (ip), vehicle: saline with Tween-80) was 1 of 6.
In the case of `O=C(Oc1ccc[nH]c1=O)C12CC3CC(CC(C3)C1)C2`, the survivor count (dose: 50.0 mg/kg/injection, schedule: Q01DX009 (ip), vehicle: saline) is reported as 6 of 6 and the survivor count [2] is reported as 6 of 6.
`NC(=O)c1cc(Cl)nc2nc(Cl)nc(N)c12` was tested, and the T/C (dose: 200.0 mg/kg/injection, schedule: Q04DX003 (ip), vehicle: saline with Tween-80) was 125 % of control.
With `CC(C)c1cccc(C(C)C)c1NC(=O)Nc1cccc(C(F)(F)F)c1` the survivor count [3] was 6 of 6 and the survivor count [4] was 6 of 6.
In the case of `C=CC1(C)CCOC(=O)C1` (configuration not stated), the survivor count [5] is reported as 1 of 6.
For `C[C@@H]1C[C@H]2[C@@H]3CCC4=CC(=O)C=C[C@]4(C)[C@@]3(F)[C@@H](O)C[C@]2(C)[C@@]1(O)C(=O)CO`, the survivor count (dose: 100.0 mg/kg/injection, schedule: Q01DX009 (ip), vehicle: saline sonified) was 6 of 6.
With `C1CCC([N-]C2CCCCC2)CC1.C1CCC([N-]C2CCCCC2)CC1.[Cl][Pt+2][Cl]` the survivor count (dose: 400.0 mg/kg/injection, schedule: Q01DX001 (sc), vehicle: other) was 3 of 6.
In the case of `C[n+]1c(C2(C)CCCO2)sc2ccccc21` (configuration not stated), the survivor count [6] is reported as 0 of 6 and the survivor count [7] is reported as 0 of 6.
With `C=C[C@@]1(C)CC(=O)[C@]2(O)[C@@]3(C)[C@@H](O)CCC(C)(C)[C@@H]3[C@H](O)[C@@H](OC(C)=O)[C@@]2(C)O1` the survivor count (dose: 25.0 mg/kg/injection, schedule: Q01DX005 (ip), vehicle: saline + Tween-80 + alcohol) was 0 of 6 and the survivor count (dose: 50.0 mg/kg/injection, schedule: Q01DX005 (ip), vehicle: saline + Tween-80 + alcohol) was 0 of 6.
`Oc1c(CN2CCCCC2)ccc2cccnc12` was tested, and the survivor count [8] was 6 of 6, the survivor count [9] was 0 of 6 and the survivor count [10] was 0 of 6. The survivor count (dose: 400.0 mg/kg/injection, schedule: Q01DX009 (ip), vehicle: saline with Tween-80) was 0 of 6.
In the case of `COc1cc(/C=C2\SC(=S)N(CCCN3CCOCC3)C2=O)ccc1O`, the survivor count [9] is reported as 6 of 6 and the survivor count [10] is reported as 6 of 6.
In the case of `C=C1C(=O)OC2CCCC(O)C12` (configuration not stated), the survivor count (dose: 200.0 mg/kg/injection, schedule: Q04DX003 (ip), vehicle: Klucel (hydroxypropylcellulose) (HPC)) is reported as 0 of 6.
With `CC(=O)C[n+]1ccccc1C` the survivor count [11] was 3 of 5.
For `Cn1cc(Cl)n(C)c(=O)c1=O`, the survivor count [12] was 0 of 6, the survivor count [13] was 0 of 6 and the survivor count [14] was 0 of 6.
With `CSc1ncc(/C(C)=N\N=C(N)N)c(C)n1` the T/C [3] was 136 % of control, the T/C [4] was 128 % of control and the survivor count [6] was 0 of 6. The survivor count [15] was 0 of 6.
In the case of `CC(C)N1C(C)(C)C1(C)C#N` (configuration not stated), the survivor count [7] is reported as 0 of 6.
With `CC(=O)c1c(C)n(-c2ccccc2)c2c1nnc1ccccc12` the survivor count (dose: 30.0 mg/kg/injection, schedule: Q01DX005 (ip), vehicle: Klucel (hydroxypropylcellulose) (HPC)) was 6 of 6, the survivor count [3] was 6 of 6 and the survivor count [4] was 6 of 6. The survivor count [15] was 5 of 6.
For `COc1ccc(CCn2cnn3c(=O)c4ccccc4nc3c2=O)cc1OC`, the survivor count [5] was 6 of 6.
`COc1cc2c(c(O)c1O)-c1ccc(OC)c(=O)cc1C(NC(C)=O)CC2` (configuration not stated) was tested, and the T/C (dose: 120.0 mg/kg/injection, schedule: Q01DX009 (ip), vehicle: distilled water + Tween-80) was 129 % of control.
With `CC1=NCC(C)c2ccccc21` (configuration not stated) the survivor count [16] was 0 of 6, the survivor count [8] was 0 of 6 and the survivor count [9] was 0 of 6. For the same compound, the survivor count [10] was 0 of 6.
With `CC(=O)c1c(N)n(C)c(=O)n(C)c1=O` the survivor count (dose: 12.5 mg/kg/injection, schedule: Q01DX009 (ip), vehicle: saline with Tween-80) was 2 of 6, the survivor count [16] was 0 of 6 and the survivor count [8] was 0 of 6. For the same compound, the survivor count [9] was 3 of 6 and the survivor count [10] was 2 of 6.
For `Cc1coc2c1C(OC(=O)C(C)C)C1(C)C(C)CCC(O)C1C2=O` (configuration not stated), the survivor count (dose: 25.0 mg/kg/injection, schedule: Q01DX009 (ip), vehicle: Klucel (hydroxypropylcellulose) (HPC)) was 5 of 6.
With `CSc1nc(SC)c2c(CN=[N+]=[N-])c(Br)n(Cc3ccccc3)c2n1` the survivor count (dose: 12.5 mg/kg/injection, schedule: Q01DX001 (ip), vehicle: saline with Tween-80) was 6 of 6, the survivor count (dose: 25.0 mg/kg/injection, schedule: Q01DX001 (ip), vehicle: saline with Tween-80) was 6 of 6 and the survivor count (dose: 50.0 mg/kg/injection, schedule: Q01DX001 (ip), vehicle: saline with Tween-80) was 6 of 6. The survivor count [12] was 6 of 6, the survivor count [13] was 6 of 6 and the survivor count [14] was 6 of 6.
For `COC(=O)c1nc(N)nc(C(=O)OC)c1C(=O)Cc1ccccc1`, the survivor count [5] was 0 of 6.
For `COc1cc(C=C2C(=O)C=CC2=O)ccc1O`, the survivor count (dose: 25.0 mg/kg/injection, schedule: Q04DX002 (ip), vehicle: saline with Tween-80) was 0 of 6, the survivor count (dose: 50.0 mg/kg/injection, schedule: Q04DX002 (ip), vehicle: saline with Tween-80) was 0 of 6 and the survivor count (dose: 50.0 mg/kg/injection, schedule: Q04DX002 (ip), vehicle: saline) was 0 of 5. The survivor count [1] was 0 of 6 and the survivor count (dose: 100.0 mg/kg/injection, schedule: Q04DX002 (ip), vehicle: saline) was 0 of 5.
With `CC(C)(Sc1cc(Cl)c(Cl)c(Cl)c1)C(=O)OCCN1CCOCC1` the survivor count (dose: 120.0 mg/kg/injection, schedule: Q01DX005 (ip), vehicle: saline with Tween-80) was 6 of 6.
With `CN(C)c1ccc(N=Nc2ccc([As](=O)(O)O)cc2)cc1` the survivor count (dose: 2.0 mg/kg/injection, schedule: Q01DX009 (ip), vehicle: saline with Tween-80) was 1 of 6, the survivor count (dose: 3.0 mg/kg/injection, schedule: Q01DX009 (ip), vehicle: saline with Tween-80) was 5 of 6 and the survivor count (dose: 6.0 mg/kg/injection, schedule: Q01DX009 (ip), vehicle: saline with Tween-80) was 5 of 6. For the same compound, the survivor count (dose: 12.0 mg/kg/injection, schedule: Q01DX009 (ip), vehicle: saline with Tween-80) was 0 of 6.
In the case of `N#CC(=C1C=CC(=NO)C=C1)c1ccc(Cl)cc1`, the T/C (dose: 266.0 mg/kg/injection, schedule: Q04DX003 (ip), vehicle: saline with Tween-80) is reported as 145 % of control and the T/C [17] is reported as 130 and 135 % of control.
With `CCOP(=O)(OCC)C1CCCN2CCc3c([nH]c4ccccc34)C12` (configuration not stated) the survivor count [2] was 5 of 6.
In the case of `NC(=O)c1csc(C2OC3COP(=O)(O)OC3C2O)n1` (configuration not stated), the T/C (dose: 200.0 mg/kg/injection, schedule: Q01DX005 (ip), vehicle: water) is reported as 147 % of control.
`Cc1c(C#N)c2n(c1C)CC(=O)N2` was tested, and the survivor count [5] was 0 of 6.
`Nc1ncnc2c1nnn2CC(O)CO` (configuration not stated) was tested, and the survivor count [15] was 1 of 6.
`CN(C)CCC(=O)C1CC1` was tested, and the survivor count (dose: 100.0 mg/kg/injection, schedule: Q01DX005 (ip), vehicle: saline with Tween-80) was 0 of 5 and the survivor count [11] was 0 of 5.
In the case of `Nc1cnccc1Nc1ccncc1`, the survivor count [13] is reported as 3 of 6.
With `Cc1ccc(NC(=O)Oc2cc(C)c(Br)c(C)c2)cc1[N+](=O)[O-]` the survivor count (dose: 100.0 mg/kg/injection, schedule: Q01DX009 (ip), vehicle: saline + alcohol) was 6 of 6.
For `CC1(C)N=C(N)N=C(N)N1c1ccc(OCCCOc2ccc(S(=O)(=O)F)cc2)c(Cl)c1`, the T/C (dose: 50.0 mg/kg/injection, schedule: Q04DX003 (ip), vehicle: saline) was 130 % of control.
`N#CC(C#N)(c1ccccc1)N1CCOCC1` was tested, and the survivor count [17] was 0 of 6.
For `CN(C)CCSc1nc2ccccc2o1`, the survivor count [7] was 0 of 6.
For `Cc1nn(C(=O)c2ccncc2)c(C)c1N=Nc1nc2ccc([N+](=O)[O-])cc2s1`, the survivor count (dose: 400.0 mg/kg/injection, schedule: Q04DX002 (ip), vehicle: saline with Tween-80) was 0 of 6.
